Data on one compound can be found in patent US8940715B2, “Lipid-regulating agent and use thereof” (Hayashibara Co., Ltd., priority 2003, dated 2015).

One data set relates to male Wister-rats. Briefly: Experiment 1-1 liver weight and lipids in liver. The data set is classed as in vivo. The conditions noted are these: 4 weeks, rat. The source says:
(§1) Fifty 5-weeks aged male Wister-rats, having a weight of 110 to 120 grams, commercialized by Charles River Japan, Kanagawa, Japan, were fed on a non-fiber feed having a composition shown in Table 1 for one week for habituation. After the habituation, the rats were randomly divided into five groups and each group was fed on either of feeds shown in Table 1, i.e., a non-fiber feed, a feed in which cellulose was incorporated into the non-fiber feed to give a content of 5% (hereinafter, abbreviated as “fiber feed”), a feed in which powdery anhydrous crystalline CTS (purity of CTS: 99.5%), prepared by the method of Example A-3 described later, was incorporated into the non-fiber feed to give a content of 1, 2, or 5%, on a dry solid basis, and the feeding test was carried out for four weeks. A fiber-feed and three kinds of feeds comprising CTS were prepared to give the total content of cellulose or CTS and corn starch of 44.75% to the total weight of each feed. The rats were kept under the conditions of keeping the temperature at 25° C., lighting and shading for 12 hours each/day, and allowing the rats to eat the respective feed and water freely. After the completion of the feeding test, weight of individuals in each group was measured and an average weight and an average increase of weight of each group during the test period were calculated. Also, the total amount of feed fed to individual rat in each group during the 4-weeks test period and an average amount of CTS taken per day per kg-weight-rat were calculated and the results are in Table 2.
After collecting the blood described above, each rat was killed by dislocating its cervical vertebrae and anatomized. Then, adipose tissues surrounding intestinal membrane, kidney, and testis, as well as liver and cecum, were collected. The wet-weight of those adipose tissues was measured and the results are in Table 4. In the case of liver, the wet-weight and the amount of total lipid, total cholesterol, triglyceride, and phospholipids were measured and the results are in Table 5. […]

A short description of data set [1]: Experiment 1-1 feeding test on rat: weight and amount of feed taken. It is filed as in vivo. The conditions noted are these: 4 weeks.
Text: as §1

Where [2] appears, read: 5% (w/w) CTS (Fiber: 5% cellulose) in feed.

SMILES strings stand for the structures.

As to `OCC1OC2OCC3O[C@H](O[C@H]4C(O)C(CO)OC(OCC5O[C@H](O[C@@H](C1O)C2O)C(O)C(O)[C@@H]5O)C4O)C(O)C(O)[C@@H]3O` (stereo partly drawn) [CTS, cyclo {→6)-α-D-glucopyranosyl-(1→3)-α-D-glucopyranosyl-(1→6)-α-D-glucopyranosyl-(1→3)-α-D-glucopyranosyl-(1→}], the Weight of liver came to 8.4 g/individual with male Wister-rats (1% (w/w) CTS in feed), 8.6 g/individual in the data set with male Wister-rats (2% (w/w) CTS in feed) and 8.1 g/individual with male Wister-rats (setting [2]). For the same compound, the “Total amount of feed taken” value in data set [1] (1% (w/w) CTS in feed) was 593 g/individual/28 days; in data set [1] (2% (w/w) CTS in feed) it was 601 g/individual/28 days; in data set [1] (setting [2]), 561 g/individual/28 days.
